These are yes or no findings as the source states them, for the method shown. Binding seen in cells or lysates may run through a third protein. Here binding means that the protein was enriched with, or labelled near, the bait; the list need not be complete. Sequences can lack the tags named with a protein.
T1: GFP-tagged ADAR1p110 (UniProt P55265)
T1 sequence: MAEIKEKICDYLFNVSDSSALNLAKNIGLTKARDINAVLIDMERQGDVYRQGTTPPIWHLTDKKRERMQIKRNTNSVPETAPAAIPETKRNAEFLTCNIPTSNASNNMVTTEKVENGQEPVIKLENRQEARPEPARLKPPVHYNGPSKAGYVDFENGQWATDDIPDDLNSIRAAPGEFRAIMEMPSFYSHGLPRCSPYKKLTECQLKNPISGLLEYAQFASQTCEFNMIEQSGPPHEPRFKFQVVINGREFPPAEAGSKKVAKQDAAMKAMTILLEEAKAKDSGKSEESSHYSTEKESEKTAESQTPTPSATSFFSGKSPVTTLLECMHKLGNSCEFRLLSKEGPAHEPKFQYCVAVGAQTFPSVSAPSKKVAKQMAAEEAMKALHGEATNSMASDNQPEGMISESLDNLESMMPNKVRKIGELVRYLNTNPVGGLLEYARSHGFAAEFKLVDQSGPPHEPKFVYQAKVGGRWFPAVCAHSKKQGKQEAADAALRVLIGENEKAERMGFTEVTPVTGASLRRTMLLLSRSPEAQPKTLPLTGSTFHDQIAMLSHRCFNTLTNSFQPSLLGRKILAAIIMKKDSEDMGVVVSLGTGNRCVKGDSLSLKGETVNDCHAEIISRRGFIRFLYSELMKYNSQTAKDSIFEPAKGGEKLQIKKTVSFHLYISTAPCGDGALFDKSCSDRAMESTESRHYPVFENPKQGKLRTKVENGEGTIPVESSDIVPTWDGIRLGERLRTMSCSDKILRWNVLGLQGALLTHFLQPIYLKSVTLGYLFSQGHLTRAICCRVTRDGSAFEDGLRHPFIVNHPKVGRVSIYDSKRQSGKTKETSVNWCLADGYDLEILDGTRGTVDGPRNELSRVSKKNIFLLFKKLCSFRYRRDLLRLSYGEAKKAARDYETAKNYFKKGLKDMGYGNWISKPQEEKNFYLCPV

The chains behind the UniProt entries cited, without tags or fusion partners.
UniProt O43143: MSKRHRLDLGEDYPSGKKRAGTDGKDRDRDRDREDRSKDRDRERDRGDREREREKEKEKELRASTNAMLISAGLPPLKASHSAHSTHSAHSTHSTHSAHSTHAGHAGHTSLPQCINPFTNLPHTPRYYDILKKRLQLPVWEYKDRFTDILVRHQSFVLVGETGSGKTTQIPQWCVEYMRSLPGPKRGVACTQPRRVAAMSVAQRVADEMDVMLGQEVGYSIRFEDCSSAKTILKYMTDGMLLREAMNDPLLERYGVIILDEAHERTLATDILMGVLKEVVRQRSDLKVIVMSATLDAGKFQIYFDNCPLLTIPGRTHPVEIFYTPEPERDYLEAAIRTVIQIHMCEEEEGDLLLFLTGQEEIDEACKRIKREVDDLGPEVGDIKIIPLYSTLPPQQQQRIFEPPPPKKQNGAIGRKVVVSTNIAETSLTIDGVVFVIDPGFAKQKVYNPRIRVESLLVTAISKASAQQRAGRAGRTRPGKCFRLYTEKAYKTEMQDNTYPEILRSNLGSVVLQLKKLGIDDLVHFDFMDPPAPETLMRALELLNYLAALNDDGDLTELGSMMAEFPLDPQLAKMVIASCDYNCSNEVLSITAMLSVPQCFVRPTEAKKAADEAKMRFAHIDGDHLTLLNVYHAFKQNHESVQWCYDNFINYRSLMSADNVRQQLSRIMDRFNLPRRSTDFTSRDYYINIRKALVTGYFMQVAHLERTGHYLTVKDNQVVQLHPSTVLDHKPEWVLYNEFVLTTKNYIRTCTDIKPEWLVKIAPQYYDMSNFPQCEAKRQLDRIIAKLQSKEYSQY
UniProt Q13435: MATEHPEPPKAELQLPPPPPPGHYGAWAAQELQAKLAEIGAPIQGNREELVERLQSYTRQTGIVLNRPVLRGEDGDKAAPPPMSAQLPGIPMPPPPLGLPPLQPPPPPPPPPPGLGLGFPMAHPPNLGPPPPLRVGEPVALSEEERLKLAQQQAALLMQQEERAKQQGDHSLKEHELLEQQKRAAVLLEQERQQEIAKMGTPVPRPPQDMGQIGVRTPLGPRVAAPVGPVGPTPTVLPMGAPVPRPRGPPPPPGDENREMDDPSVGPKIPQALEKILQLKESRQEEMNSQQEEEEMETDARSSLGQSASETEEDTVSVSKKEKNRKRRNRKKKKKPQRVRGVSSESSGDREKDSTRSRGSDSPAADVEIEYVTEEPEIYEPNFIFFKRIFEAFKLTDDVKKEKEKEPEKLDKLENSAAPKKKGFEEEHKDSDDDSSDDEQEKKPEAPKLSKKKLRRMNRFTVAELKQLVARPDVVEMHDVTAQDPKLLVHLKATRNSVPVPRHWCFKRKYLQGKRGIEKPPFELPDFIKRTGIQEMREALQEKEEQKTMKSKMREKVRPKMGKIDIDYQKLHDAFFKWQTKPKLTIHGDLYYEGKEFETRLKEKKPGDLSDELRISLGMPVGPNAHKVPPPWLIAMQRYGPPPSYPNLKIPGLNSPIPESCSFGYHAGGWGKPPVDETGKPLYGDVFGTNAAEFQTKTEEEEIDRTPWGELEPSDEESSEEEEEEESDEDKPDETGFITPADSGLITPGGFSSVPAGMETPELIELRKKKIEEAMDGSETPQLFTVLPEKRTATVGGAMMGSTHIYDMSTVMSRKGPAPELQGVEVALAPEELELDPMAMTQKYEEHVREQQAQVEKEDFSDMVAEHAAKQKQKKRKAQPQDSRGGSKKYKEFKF
UniProt Q15393: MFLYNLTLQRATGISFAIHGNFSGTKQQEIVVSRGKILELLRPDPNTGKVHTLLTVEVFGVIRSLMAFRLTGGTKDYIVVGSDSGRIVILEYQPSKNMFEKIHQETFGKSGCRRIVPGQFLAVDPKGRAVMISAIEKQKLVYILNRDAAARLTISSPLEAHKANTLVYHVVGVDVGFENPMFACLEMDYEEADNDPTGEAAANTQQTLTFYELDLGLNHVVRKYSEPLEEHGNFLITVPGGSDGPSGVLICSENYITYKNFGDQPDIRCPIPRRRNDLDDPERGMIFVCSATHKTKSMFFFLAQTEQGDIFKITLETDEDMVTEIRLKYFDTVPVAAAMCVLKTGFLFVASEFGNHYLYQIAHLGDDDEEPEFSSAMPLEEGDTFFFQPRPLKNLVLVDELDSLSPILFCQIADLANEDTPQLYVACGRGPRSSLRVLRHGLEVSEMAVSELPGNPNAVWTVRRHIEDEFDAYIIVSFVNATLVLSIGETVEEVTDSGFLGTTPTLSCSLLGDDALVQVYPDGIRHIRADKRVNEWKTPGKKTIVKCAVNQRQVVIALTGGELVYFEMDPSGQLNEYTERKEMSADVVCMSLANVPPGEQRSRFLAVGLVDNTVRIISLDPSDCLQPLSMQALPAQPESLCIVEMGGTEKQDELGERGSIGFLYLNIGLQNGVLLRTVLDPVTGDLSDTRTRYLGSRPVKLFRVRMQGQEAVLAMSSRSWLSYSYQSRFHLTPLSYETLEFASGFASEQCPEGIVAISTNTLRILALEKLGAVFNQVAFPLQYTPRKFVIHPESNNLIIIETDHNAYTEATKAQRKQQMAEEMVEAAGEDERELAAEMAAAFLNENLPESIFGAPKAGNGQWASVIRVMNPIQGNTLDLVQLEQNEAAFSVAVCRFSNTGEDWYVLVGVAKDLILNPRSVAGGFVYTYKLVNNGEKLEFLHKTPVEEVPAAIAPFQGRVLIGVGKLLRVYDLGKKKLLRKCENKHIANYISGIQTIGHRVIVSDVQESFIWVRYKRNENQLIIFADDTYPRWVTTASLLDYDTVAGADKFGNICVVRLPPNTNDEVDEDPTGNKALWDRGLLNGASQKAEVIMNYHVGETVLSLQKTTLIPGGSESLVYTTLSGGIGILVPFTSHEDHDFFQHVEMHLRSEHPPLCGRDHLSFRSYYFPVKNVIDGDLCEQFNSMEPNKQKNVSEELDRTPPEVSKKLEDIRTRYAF
UniProt P62318: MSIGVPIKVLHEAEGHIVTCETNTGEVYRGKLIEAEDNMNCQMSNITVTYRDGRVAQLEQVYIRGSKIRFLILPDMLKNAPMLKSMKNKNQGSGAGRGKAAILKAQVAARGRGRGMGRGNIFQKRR
UniProt P62304: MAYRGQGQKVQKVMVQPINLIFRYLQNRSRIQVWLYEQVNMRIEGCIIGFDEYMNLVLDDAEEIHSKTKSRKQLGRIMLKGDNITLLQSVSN
UniProt P62308: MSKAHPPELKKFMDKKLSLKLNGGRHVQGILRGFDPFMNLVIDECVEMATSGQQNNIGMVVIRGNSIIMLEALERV

B1: STRBP (protein, UniProt Q96SI9 1-672)
chain: MRSIRSFANDDRHVMVKHSTIYPSPEELEAVQNMVSTVECALKHVSDWLDETNKGTKTEGETEVKKDEAGENYSKDQGGRTLCGVMRIGLVAKGLLIKDDMDLELVLMCKDKPTETLLNTVKDNLPIQIQKLTEEKYQVEQCVNEASIIIRNTKEPTLTLKVILTSPLIRDELEKKDGENVSMKDPPDLLDRQKCLNALASLRHAKWFQARANGLKSCVIVLRILRDLCNRVPTWAPLKGWPLELICEKSIGTCNRPLGAGEALRRVMECLASGILLPGGPGLHDPCERDPTDALSYMTIQQKEDITHSAQHALRLSAFGQIYKVLEMDPLPSSKPFQKYSWSVTDKEGAGSSALKRPFEDGLGDDKDPNKKMKRNLRKILDSKAIDLMNALMRLNQIRPGLQYKLLSQSGPVHAPVFTMSVDVDGTTYEASGPSKKTAKLHVAVKVLQAMGYPTGFDADIECMSSDEKSDNESKNETVSSNSSNNTGNSTTETSSTLEVRTQGPILTASGKNPVMELNEKRRGLKYELISETGGSHDKRFVMEVEVDGQKFRGAGPNKKVAKASAALAALEKLFSGPNAANNKKKKIIPQAKGVVNTAVSAAVQAVRGRGRGTLTRGAFVGATAAPGYIAPGYGTPYGYSTAAPAYGLPKRMVLLPVMKFPTYPVPHYSFF
B2: HNRNPL (protein, UniProt P14866 1-589)
chain: MSRRLLPRAEKRRRRLEQRQQPDEQRRRSGAMVKMAAAGGGGGGGRYYGGGSEGGRAPKRLKTDNAGDQHGGGGGGGGGAGAAGGGGGGENYDDPHKTPASPVVHIRGLIDGVVEADLVEALQEFGPISYVVVMPKKRQALVEFEDVLGACNAVNYAADNQIYIAGHPAFVNYSTSQKISRPGDSDDSRSVNSVLLFTILNPIYSITTDVLYTICNPCGPVQRIVIFRKNGVQAMVEFDSVQSAQRAKASLNGADIYSGCCTLKIEYAKPTRLNVFKNDQDTWDYTNPNLSGQGDPGSNPNKRQRQPPLLGDHPAEYGGPHGGYHSHYHDEGYGPPPPHYEGRRMGPPVGGHRRGPSRYGPQYGHPPPPPPPPEYGPHADSPVLMVYGLDQSKMNCDRVFNVFCLYGNVEKVKFMKSKPGAAMVEMADGYAVDRAITHLNNNFMFGQKLNVCVSKQPAIMPGQSYGLEDGSCSYKDFSESRNNRFSTPEQAAKNRIQHPSNVLHFFNAPLEVTEENFFEICDELGVKRPSSVKVFSGKSERSSSGLLEWESKSDALETLGFLNHYQMKNPNGPYPYTLKLCFSTAQHAS

The molecules below were run against T1, GFP-tagged ADAR1p110 (assay: affinity purification with mass spectrometry; GFP-trap beads on lysate of HeLa Flp-In T-REx cells expressing ADAR1p110-GFP, non-denaturing conditions; lysis buffer 10 mM Tris/Cl pH 7.5, 150 mM NaCl, 0.5 mM EDTA, 0.5% Triton X, with 250 units Benzonase; 4 h at 4 °C; pH elution; label-free quantitative proteomics; GFP-expressing cells as control).

binding, binds:
DHX15 (from UniProt O43143 1-795), SF3B2 (from UniProt Q13435 1-895), SF3B3 (from UniProt Q15393 1-1217), SNRPD3 (from UniProt P62318 1-126), SNRPE (from UniProt P62304 1-92), SNRPG (from UniProt P62308 1-76), B1, B2

— article PMC13164374
